Data as given in article PMC8468827.
No constants are given. Whether binding was seen depends on the method and setting. In cells and extracts the contact can be indirect. Some binding calls cover weakened binding; strength is not graded here. For some of these results: Tags and fused reporters may be left off the sequences shown.

Amino acid sequences for entries named in this document (tags omitted).
UniProt Q9VQ93: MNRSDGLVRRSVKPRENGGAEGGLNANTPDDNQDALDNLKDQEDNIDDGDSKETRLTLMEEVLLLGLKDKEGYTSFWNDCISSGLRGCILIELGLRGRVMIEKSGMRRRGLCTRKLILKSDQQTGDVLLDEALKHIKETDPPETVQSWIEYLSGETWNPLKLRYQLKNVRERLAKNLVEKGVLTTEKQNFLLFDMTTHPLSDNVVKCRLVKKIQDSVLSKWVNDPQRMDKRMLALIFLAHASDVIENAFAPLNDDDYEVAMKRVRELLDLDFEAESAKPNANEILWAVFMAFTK
UniProt O18338: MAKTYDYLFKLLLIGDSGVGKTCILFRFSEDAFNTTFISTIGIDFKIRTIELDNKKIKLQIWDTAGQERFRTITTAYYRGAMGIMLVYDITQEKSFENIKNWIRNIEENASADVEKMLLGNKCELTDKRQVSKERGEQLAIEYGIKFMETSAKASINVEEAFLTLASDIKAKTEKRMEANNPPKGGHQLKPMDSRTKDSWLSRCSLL
UniProt Q9NFU0: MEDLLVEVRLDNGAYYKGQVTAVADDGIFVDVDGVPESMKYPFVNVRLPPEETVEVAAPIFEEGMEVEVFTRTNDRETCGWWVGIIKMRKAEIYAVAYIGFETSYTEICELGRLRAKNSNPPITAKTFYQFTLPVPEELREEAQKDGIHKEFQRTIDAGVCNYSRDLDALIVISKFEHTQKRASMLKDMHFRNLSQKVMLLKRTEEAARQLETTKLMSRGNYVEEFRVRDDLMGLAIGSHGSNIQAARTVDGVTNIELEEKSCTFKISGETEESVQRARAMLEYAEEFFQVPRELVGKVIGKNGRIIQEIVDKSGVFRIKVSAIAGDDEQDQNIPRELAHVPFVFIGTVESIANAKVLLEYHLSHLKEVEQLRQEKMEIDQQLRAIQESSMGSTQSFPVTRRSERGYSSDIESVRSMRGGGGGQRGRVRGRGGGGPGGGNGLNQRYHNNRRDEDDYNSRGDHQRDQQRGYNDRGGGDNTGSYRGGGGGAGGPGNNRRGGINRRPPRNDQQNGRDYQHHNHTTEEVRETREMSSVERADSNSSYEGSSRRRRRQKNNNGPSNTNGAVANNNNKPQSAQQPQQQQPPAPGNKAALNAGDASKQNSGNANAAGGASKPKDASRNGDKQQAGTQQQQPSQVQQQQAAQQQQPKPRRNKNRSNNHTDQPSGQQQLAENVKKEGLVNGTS

Tests used:
[1] = target: T1, dAtx2-HA (Drosophila melanogaster) (UniProt Q8SWR8); assay: proximity ligation; Duolink PLA on formaldehyde-fixed larval testes (premeiotic and dividing spermatocytes); one primary antibody omitted as negative control
T1 sequence: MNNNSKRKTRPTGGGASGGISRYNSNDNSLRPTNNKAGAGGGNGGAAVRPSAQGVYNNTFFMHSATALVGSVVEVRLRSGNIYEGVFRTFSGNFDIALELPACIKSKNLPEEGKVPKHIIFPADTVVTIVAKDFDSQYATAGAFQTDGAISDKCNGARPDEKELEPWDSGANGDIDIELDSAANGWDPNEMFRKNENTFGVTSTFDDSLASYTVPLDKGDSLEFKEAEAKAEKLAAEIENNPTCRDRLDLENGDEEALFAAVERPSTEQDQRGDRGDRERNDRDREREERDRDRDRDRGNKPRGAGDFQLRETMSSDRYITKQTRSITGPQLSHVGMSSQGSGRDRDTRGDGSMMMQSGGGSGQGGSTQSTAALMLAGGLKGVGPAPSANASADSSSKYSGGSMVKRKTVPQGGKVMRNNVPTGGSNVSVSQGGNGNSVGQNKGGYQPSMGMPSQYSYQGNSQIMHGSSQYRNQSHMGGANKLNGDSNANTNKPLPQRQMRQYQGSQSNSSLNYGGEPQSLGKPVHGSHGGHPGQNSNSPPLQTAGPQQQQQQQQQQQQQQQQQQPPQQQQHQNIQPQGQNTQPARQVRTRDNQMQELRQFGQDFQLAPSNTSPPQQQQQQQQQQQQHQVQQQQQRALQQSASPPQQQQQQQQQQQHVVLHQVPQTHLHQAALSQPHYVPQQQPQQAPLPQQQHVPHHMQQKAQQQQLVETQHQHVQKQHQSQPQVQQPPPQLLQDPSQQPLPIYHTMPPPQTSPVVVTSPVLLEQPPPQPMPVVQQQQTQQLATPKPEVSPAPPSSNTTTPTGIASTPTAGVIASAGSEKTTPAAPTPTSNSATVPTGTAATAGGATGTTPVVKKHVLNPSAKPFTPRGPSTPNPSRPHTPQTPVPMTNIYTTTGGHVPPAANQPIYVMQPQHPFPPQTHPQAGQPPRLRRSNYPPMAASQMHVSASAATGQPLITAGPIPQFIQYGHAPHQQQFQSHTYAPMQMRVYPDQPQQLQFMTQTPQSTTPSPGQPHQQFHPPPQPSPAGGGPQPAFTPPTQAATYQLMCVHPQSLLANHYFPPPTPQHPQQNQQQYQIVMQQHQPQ

[2] = target: dGOLPH3 (Drosophila melanogaster (endogenous in testes)) (UniProt Q9VQ93); assay: as above
[3] = target: dGOLPH3 (Drosophila melanogaster (endogenous in testes)) (UniProt Q9VQ93); assay: co-IP; extract of 400 adult testes expressing dAtx2-HA, rabbit anti-GOLPH3 antibody (pre-immune serum as control) and Protein A-Agarose; blotted for dGOLPH3, dFmr1 and HA
[4] = target: T2, RFP–βCOP (Drosophila melanogaster) (UniProt P45437); assay: co-IP; RFP-trap beads on lysate of 400 adult testes expressing RFP-tagged proteins; lysis buffer 25 mM Tris-HCl pH 7.4, 150 mM NaCl, 1 mM EDTA, 1% NP-40; blotted for RFP and dGOLPH3
T2 sequence: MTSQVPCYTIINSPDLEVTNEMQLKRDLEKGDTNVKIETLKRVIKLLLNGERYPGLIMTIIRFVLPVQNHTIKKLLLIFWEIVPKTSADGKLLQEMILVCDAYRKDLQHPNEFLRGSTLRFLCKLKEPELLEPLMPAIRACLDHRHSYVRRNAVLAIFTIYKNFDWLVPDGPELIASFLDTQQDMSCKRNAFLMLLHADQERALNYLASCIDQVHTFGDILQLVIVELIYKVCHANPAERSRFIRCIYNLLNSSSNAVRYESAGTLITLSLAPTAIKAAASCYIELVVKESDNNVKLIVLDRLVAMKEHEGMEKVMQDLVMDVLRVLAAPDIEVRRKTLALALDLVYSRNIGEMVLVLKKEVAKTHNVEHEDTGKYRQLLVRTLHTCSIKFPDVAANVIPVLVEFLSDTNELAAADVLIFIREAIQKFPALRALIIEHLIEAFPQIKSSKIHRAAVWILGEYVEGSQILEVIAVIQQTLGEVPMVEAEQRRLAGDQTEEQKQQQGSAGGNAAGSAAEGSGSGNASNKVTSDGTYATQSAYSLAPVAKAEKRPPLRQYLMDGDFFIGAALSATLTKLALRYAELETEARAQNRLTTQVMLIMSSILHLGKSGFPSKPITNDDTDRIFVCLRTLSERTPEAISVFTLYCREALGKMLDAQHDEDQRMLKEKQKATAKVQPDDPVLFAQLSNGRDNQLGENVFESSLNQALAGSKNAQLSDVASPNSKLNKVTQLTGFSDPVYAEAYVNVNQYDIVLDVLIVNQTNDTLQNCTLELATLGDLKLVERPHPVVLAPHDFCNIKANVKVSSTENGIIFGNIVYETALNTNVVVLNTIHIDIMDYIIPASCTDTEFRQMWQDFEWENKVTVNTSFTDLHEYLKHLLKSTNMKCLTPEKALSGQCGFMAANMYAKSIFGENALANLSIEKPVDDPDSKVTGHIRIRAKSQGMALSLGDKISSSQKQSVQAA

[5] = target: T3, GFP tagged Sec22 (Drosophila melanogaster) (UniProt M9PGI6); assay: co-IP; GFP-trap beads on lysate of 400 adult testes expressing GFP- or YFP-tagged proteins; lysis buffer 25 mM Tris-HCl pH 7.4, 150 mM NaCl, 1 mM EDTA, 1% NP-40; blotted for GFP/YFP and GOLPH3
T3 sequence: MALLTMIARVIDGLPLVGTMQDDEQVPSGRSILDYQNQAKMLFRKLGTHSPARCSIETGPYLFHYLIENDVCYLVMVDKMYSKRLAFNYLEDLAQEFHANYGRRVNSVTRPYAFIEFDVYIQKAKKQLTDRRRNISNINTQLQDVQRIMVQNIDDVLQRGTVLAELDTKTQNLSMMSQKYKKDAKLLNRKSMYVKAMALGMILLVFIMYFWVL

[6] = target: T4, YFP-Rab10 (Drosophila melanogaster) (UniProt O15971); assay: as above
T4 sequence: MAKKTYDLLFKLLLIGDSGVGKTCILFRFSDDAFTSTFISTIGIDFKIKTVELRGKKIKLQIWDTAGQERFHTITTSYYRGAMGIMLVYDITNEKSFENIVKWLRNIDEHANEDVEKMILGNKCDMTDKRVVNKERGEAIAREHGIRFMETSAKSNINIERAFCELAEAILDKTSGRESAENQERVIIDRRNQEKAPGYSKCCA

[7] = target: YFP-Rab8 (Drosophila melanogaster) (UniProt O18338); assay: as above

Measured: binding

dFmr1 (from UniProt Q9NFU0 1-684)
binds: [1] | [2] | [3]

dGOLPH3 (from UniProt Q9VQ93 1-294)
binds: [4] | [5] | [6] | [7]
